Results are given in words; binding and its absence hold for the method and conditions named. Tags and fused reporters may be left off the sequences shown.
Target: T1, GST fusion protein of the cytoplasmic amino terminus of rat NCC (amino acids 1-133) (rat) (UniProt P55018)
T1 sequence: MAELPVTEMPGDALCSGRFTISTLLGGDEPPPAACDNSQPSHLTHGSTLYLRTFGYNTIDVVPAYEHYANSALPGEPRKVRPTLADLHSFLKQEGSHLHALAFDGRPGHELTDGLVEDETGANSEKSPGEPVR
Assay: pull-down; GST-(N) NCC or GST alone on glutathione-agarose beads with 2–10 μg recombinant phosphatase; 12- to 18-hour incubation in PBS with 0.5 mM TCEP at 4°C; bound protein detected by Western blotting; both purified

“recombinant calcineurin (PPP3CA) (from UniProt Q08209 1-521) (enzyme)” was tested, and the binding was “no binding (tested: 2–10 μg)”.

From PMC10617769, “Dietary potassium stimulates Ppp1Ca-Ppp1r1a dephosphorylation of kidney NaCl cotransporter and reduces blood pressure” (The Journal of Clinical Investigation, 2023)
